According to paper PMC10455450:
Results are given in words; binding and its absence hold for the method and conditions named. Binding seen in cells or lysates may run through a third protein. Some binding calls cover weakened binding; strength is not graded here. For some assays here: Tags and fused reporters may be left off the sequences shown. Values belong to the molecule of their own block, whether it stands above or below them.

Amino acid sequences for entries named in this document (tags omitted).
UniProt Q9NZJ0: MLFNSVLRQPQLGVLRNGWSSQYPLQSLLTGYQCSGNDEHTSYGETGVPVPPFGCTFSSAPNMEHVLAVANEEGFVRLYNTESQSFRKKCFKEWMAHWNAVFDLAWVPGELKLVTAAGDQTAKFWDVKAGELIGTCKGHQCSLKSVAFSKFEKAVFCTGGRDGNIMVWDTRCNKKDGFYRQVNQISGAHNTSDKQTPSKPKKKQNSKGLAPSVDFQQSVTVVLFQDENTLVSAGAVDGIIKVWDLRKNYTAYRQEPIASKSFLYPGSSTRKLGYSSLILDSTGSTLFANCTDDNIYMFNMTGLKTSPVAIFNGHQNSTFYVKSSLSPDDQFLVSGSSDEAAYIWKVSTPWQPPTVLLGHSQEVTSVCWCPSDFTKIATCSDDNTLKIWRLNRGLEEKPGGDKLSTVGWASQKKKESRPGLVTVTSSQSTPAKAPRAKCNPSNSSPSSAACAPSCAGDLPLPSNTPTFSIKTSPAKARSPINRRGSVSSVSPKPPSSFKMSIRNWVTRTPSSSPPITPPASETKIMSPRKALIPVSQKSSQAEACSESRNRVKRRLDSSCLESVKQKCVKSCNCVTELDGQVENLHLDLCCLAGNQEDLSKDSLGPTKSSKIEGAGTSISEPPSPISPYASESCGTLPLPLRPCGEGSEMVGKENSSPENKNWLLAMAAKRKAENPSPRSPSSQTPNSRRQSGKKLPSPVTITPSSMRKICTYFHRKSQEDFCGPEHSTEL

What was measured:
[1] = target: T1, VMP1–FLAG (pLenti–hVMP1–FLAG) (human) (UniProt Q96GC9); assay: co-IP; HEK293T lysates; Anti-FLAG M2 magnetic beads, 2 h at 4 °C; washed with lysis buffer; eluted with Laemmli buffer; immunoblot
T1 sequence: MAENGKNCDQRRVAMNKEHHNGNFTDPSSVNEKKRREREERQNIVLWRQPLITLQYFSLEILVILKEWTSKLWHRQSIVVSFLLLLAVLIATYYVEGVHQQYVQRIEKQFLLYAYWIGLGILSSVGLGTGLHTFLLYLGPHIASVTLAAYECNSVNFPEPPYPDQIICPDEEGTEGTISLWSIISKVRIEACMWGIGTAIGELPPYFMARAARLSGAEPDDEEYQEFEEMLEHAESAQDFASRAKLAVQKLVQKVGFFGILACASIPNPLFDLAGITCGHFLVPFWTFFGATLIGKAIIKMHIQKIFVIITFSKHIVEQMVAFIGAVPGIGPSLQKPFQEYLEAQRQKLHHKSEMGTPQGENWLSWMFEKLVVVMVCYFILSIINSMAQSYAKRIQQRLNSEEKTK

[2] = target: FLAG–HA–Cdt2 (cell division cycle protein cdt2, from pcDNA3–2xFLAG–2xHA–Cdt2) (human) (UniProt Q9NZJ0); assay: as above

- binding [1]: binds
Molecule: Myc–Cdt2 (pcDNA3–Myc–Cdt2) (from UniProt Q9NZJ0 1-730)

- binding [2]: binds
B1: Vacuole Membrane Protein 1 (VMP1), endogenous (protein, UniProt Q96GC9 1-406)
chain: T1 sequence
